From patent publication US9409122B2, “Gas capture process” (Commonwealth Scientific and Industrial Research Organisation, priority 2011, dated 2016)

Test: CO2 absorption at 40° C. with CO2 gas (99%)
Format: physicochemical
Conditions: 40° C.; solid not measurable by 13C NMR

SMILES | observation during CO2 absorption
CCCNC1CCNCC1 [Compound 4, 4-Propylaminopiperidine] | formed a large quantity of bicarbonate solid

Same assay, conditions: on a mol % basis; absorption at 40° C.; CO2 gas (99%); FIG. 2(a)

SMILES | capacity for CO2 loading [%]
CCCN1CCC(N)CC1 [Compound 2, 1-propyl-4-aminopiperidine] | 180
OCCNC1CCNCC1 [Compound 3, 4-ethanolaminopiperidine] | 180
NC1CCNCC1 [4-aminopiperidine, reference compound] | 155
NC1CCN(CCO)CC1 [Compound 1, 1-ethanol-4-aminopiperidine] | 200

Test: CO2 absorption-desorption (CO2 sequestration in 10% CO2 and 90% N2), quantitative 13C NMR
Format: physicochemical
Conditions: difference between maximum and minimum CO2 loading; absorption 40° C., desorption 90° C.

SMILES | Cyclic capacity in CO2 absorption/desorption [g/g] | Cyclic capacity in CO2 absorption/desorption, Molar capacity
OCCCNC1CCNCC1 | 0.09 | 0.34
NC1CCN(CCCO)CC1 | 0.10 | 0.35
NC1CCN(CCO)CC1 [drawing 34] | 0.14 | 0.45
CCCN1CCC(N)CC1 [drawing 33] | 0.19 | 0.61
OCCCCCCNCC1CCNCC1 | 0.08 | 0.39
CN(CCCCCCO)C1CCNCC1 | 0.10 | 0.47
NC1CCN(CCCCCCO)CC1 | 0.12 | 0.56
CCN(C)C1CCNCC1 | 0.13 | 0.43
CCN1CCC(N)CC1 | 0.16 | 0.46
O=C(O)CNCC1CCNCC1 | 0.15 | 0.52
CCNCC1CCNCC1 | 0.12 | 0.38
CCNC1CCNCC1 | 0.15 | 0.43
OCCNCC1CCNCC1 | 0.10 | 0.35
CN(CCCO)C1CCNCC1 | 0.09 | 0.36
CN(C)CCCNC1CCNCC1 | 0.18 | 0.69
CN(C)CNCC1CCNCC1 | 0.13 | 0.53
CN(CCO)CC1CCNCC1 | 0.11 | 0.44
OCCCCCCNC1CCNCC1 | 0.10 | 0.46
OCCNC1CCNCC1 [drawing 24] | 0.15 | 0.41
CCN(C)CC1CCNCC1 | 0.19 | 0.52
CN(CCO)C1CCNCC1 | 0.08 | 0.28

Same assay, conditions: molar ratio of CO2 to amine; 2M amine, 40° C., 10% CO2 and 90% N2, 18 hours

SMILES | Maximum CO2 loading, Molar capacity
OCCCNC1CCNCC1 | 1.05
NC1CCN(CCCO)CC1 | 1.00
NC1CCN(CCO)CC1 [drawing 34] | 1.02
CCCN1CCC(N)CC1 [drawing 33] | 1.17
OCCCCCCNCC1CCNCC1 | 0.98
CN(CCCCCCO)C1CCNCC1 | 1.01
NC1CCN(CCCCCCO)CC1 | 0.95
CCN(C)C1CCNCC1 | 1.30
CCN1CCC(N)CC1 | 1.14
O=C(O)CNCC1CCNCC1 | 0.70
CCNCC1CCNCC1 | 1.58
CCNC1CCNCC1 | 1.46
OCCNCC1CCNCC1 | 1.24
CN(CCCO)C1CCNCC1 | 1.07
CN(C)CCCNC1CCNCC1 | 1.50
CN(C)CNCC1CCNCC1 | 1.80
CN(CCO)CC1CCNCC1 | 1.13
OCCCCCCNC1CCNCC1 | 1.15
OCCNC1CCNCC1 [drawing 24] | 1.02
CCN(C)CC1CCNCC1 | 1.26
CN(CCO)C1CCNCC1 | 1.05

Same assay, conditions: weight loading calculated from molar ratio; 2M amine, 40° C., 10% CO2 and 90% N2

SMILES | Maximum CO2 loading [g/g]
OCCCNC1CCNCC1 | 0.29
NC1CCN(CCCO)CC1 | 0.28
NC1CCN(CCO)CC1 [drawing 34] | 0.31
CCCN1CCC(N)CC1 [drawing 33] | 0.36
OCCCCCCNCC1CCNCC1 | 0.20
CN(CCCCCCO)C1CCNCC1 | 0.21
NC1CCN(CCCCCCO)CC1 | 0.21
CCN(C)C1CCNCC1 | 0.40
CCN1CCC(N)CC1 | 0.39
O=C(O)CNCC1CCNCC1 | 0.19
CCNCC1CCNCC1 | 0.49
CCNC1CCNCC1 | 0.51
OCCNCC1CCNCC1 | 0.38
CN(CCCO)C1CCNCC1 | 0.27
CN(C)CCCNC1CCNCC1 | 0.39
CN(C)CNCC1CCNCC1 | 0.43
CN(CCO)CC1CCNCC1 | 0.29
OCCCCCCNC1CCNCC1 | 0.25
OCCNC1CCNCC1 [drawing 24] | 0.35
CCN(C)CC1CCNCC1 | 0.41
CN(CCO)C1CCNCC1 | 0.29
